Several values for one entry are separate records, joined by “and”; a condition that tells them apart may be missing. Equal values may be shown once. Where a name gives a salt, the structure may show the parent alone. The list shows a part of the results. Single values are uncertain here, since repeats match poorly.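 HEK293T cells were given each compound shortly before transfection with a reporter in which red mCherry is followed by the SARS-CoV-2 frameshift element and then GFP in the −1 frame, so GFP appears only after frameshifting.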
tested on: HEK293T; test: percent viability (nuclei count) relative to control; higher = more viable cells; details: 10 µM; 24 h

Compound	percent viability
CCN(CC)CCOC(=O)c1ccc(N)cc1 [procaine]	111%
CCOCCOC(=O)/C=C/c1ccc(OC)cc1 [cinoxate]	275%
CC(=O)Oc1cc2c(s1)CCN(C(C(=O)C1CC1)c1ccccc1F)C2 (stereo unspecified)	116%
COc1cc([C@@H]2c3cc4c(cc3[C@@H](O[C@@H]3O[C@@H]5CO[C@@H](c6cccs6)O[C@H]5[C@H](O)[C@H]3O)[C@H]3COC(=O)[C@H]23)OCO4)cc(OC)c1O	58.5%
O=C(O)c1ccccc1C(=O)Nc1ccc(S(=O)(=O)Nc2nccs2)cc1 [phthalylsulfathiazole]	254%
C/C=C/c1ccc(OC)cc1 [Anethole, trans-]	118%
Cc1ncc([N+](=O)[O-])n1C [dimetridazole]	218%
O=C(OCCOCCN1CCCCC1)N1c2ccccc2Sc2cccnc21 [pipazetate]	62.6%
O=C(NCCc1ccc(O)c(O)c1)C12CC3CC(CC(C3)C1)C2 [dopamantine]	194%
O=C1NC(=O)C(c2ccccc2)(c2ccccc2)N1 [phenytoin]	119% and 206%
CC(=O)c1ccc2c(c1)N(CCCN1CCC(CCO)CC1)c1ccccc1S2 [piperacetazine]	353%
COc1cc(-c2ccc(=O)[nH]n2)ccc1OC(F)F [zardaverine]	193%
CC1=C(C(=O)O)N2C(=O)[C@@H](NC(=O)[C@H](N)C3=CCC=CC3)[C@H]2SC1 [Velosef]	107%
CCOC(=O)c1cnc2cc(OCC(C)C)c(OCC(C)C)cc2c1O [buquinolate]	164%
Cc1ccc(-c2ncc(Cl)cc2-c2ccc(S(C)(=O)=O)cc2)cn1 [etoricoxib]	23.3%
Oc1ccc2c(c1)CC[C@H](c1ccccc1)[C@@H]2c1ccc(OCCN2CCCC2)cc1 [lasofoxifene]	317%
NCCc1ccc(O)c(O)c1 [dopamine]	198%
CN1CCN(c2c(F)cc3c(=O)c(C(=O)O)cn4c3c2OCN4C)CC1 [marbofloxacin]	191%

Single entries from the results shown.
percent viability, `CCN(CC)CCOC(=O)c1ccc(N)cc1` [procaine] reads 111%
percent viability, `CCOC(=O)c1cnc2cc(OCC(C)C)c(OCC(C)C)cc2c1O` [buquinolate] reads 164%

Next part:

Compound	percent viability
CC1=C(C)C(=O)C(CCCCC#CCCCC#CCO)=C(C)C1=O [docebenone]	311%
C#C[C@]1(O)CC[C@H]2[C@@H]3CCC4=C(CCC(=O)C4)[C@H]3CC[C@@]21C	298%
[O-][n+]1cccc(CO)c1	255%
O=[N+]([O-])c1nccn1CC(O)CN1CCCCC1 (stereo unspecified) [pimonidazole]	85.8%
CCN1CCN(C(=O)N[C@@H](C(=O)N[C@@H]2C(=O)N3[C@@H]2SC(C)(C)[C@@H]3C(=O)O)c2ccccc2)C(=O)C1=O [Piperacillin]	186%
C[C@H]1[C@H](OC(=O)CCC(=O)O)O[C@@H]2O[C@@]3(C)CC[C@H]4[C@H](C)CC[C@@H]1[C@@]24OO3 [artesunate]	108%
CN/C(=C\[N+](=O)[O-])NCCSCc1ccc(CN(C)C)o1 [Ranitidine·HCl]	213%
OCCN1C[C@H](O)[C@@H](O)[C@H](O)[C@H]1CO [miglitol]	274%
O=C(O)C[C@H](O)C[C@H](O)/C=C/c1c(C2CC2)nc2ccccc2c1-c1ccc(F)cc1	139%
C[C@@H]1C/C=C/C=C/C=C/C=C/[C@H](O[C@@H]2O[C@H](C)[C@@H](O)[C@H](N)[C@@H]2O)C[C@@H]2O[C@](O)(C[C@@H](O)C[C@H]3O[C@@H]3/C=C/C(=O)O1)C[C@H](O)[C@H]2C(=O)O [Natamycin]	65.4%
COc1cc2cc(c1Cl)N(C)C(=O)C[C@H](OC(=O)[C@H](C)N(C)C(C)=O)[C@]1(C)O[C@H]1[C@H](C)[C@@H]1C[C@@](O)(NC(=O)O1)[C@H](OC)/C=C/C=C(\C)C2 [maitansine]	12.8%
CCCCC(=O)O[C@H]1CC[C@H]2[C@@H]3CCc4cc(O)ccc4[C@H]3CC[C@]12C [estradiol valerate]	206%
C[N+](C)(C)[C@@H](Cc1c[nH]c(=S)[nH]1)C(=O)[O-] [Ergothioneine]	217%
O=P(O)(O)C(O)(Cc1cnc2ccccn12)P(=O)(O)O [minodronic acid]	206%
CC(=O)Nc1ccc(OC(C)=O)cc1 [diacetamate]	235%
Cc1cc(Cl)c(S(N)(=O)=O)cc1S(N)(=O)=O [disulfamide]	124%
CC(=O)SCC(Cc1ccccc1)C(=O)NCC(=O)OCc1ccccc1 (stereo unspecified) [racecadotril]	217% and 198%
NC(=O)N1CCC(CC(=O)N2CCC([C@H]3c4ncc(Br)cc4CCc4cc(Cl)cc(Br)c43)CC2)CC1 [lonafarnib]	127%

Reference: the supplement of paper PMC8256030
